Reference: the supplement of paper PMC12067093, “Discovery and optimisation of a covalent ligand for TRIM25 and its application to targeted protein ubiquitination” (Chemical Science, 2025)
Some of the results follow.

By UniProt entry, the sequences of proteins in these tests, tags left out. Where a name states a change or a piece, a line headed by the entry shows the natural chain unless it says otherwise.
UniProt Q8NG08: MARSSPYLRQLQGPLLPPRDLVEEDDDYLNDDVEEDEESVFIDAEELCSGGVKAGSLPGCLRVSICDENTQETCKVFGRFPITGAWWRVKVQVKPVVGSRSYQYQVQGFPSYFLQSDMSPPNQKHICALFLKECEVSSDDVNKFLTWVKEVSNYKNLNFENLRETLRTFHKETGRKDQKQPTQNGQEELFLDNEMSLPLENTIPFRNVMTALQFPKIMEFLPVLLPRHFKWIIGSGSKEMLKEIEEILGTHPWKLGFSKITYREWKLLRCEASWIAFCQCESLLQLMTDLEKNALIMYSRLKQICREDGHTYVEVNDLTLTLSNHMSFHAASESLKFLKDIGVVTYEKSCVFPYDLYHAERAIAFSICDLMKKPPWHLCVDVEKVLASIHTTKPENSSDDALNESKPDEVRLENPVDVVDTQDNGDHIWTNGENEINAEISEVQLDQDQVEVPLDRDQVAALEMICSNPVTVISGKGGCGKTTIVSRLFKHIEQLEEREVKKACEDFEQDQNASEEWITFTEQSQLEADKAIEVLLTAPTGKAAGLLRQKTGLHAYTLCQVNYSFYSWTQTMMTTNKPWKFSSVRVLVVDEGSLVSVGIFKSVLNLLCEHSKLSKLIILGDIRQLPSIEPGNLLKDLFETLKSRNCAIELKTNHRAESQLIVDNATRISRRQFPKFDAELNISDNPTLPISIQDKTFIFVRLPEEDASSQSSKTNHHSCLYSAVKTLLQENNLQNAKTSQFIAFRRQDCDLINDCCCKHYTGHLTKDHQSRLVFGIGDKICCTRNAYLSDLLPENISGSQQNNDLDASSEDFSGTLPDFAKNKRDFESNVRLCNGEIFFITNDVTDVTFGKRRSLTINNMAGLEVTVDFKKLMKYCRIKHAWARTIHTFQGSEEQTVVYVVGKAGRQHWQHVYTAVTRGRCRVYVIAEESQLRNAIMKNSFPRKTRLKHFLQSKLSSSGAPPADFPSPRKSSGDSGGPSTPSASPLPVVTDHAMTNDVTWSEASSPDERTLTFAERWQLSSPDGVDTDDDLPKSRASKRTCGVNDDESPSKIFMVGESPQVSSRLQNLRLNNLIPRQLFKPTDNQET
UniProt Q9NRZ9: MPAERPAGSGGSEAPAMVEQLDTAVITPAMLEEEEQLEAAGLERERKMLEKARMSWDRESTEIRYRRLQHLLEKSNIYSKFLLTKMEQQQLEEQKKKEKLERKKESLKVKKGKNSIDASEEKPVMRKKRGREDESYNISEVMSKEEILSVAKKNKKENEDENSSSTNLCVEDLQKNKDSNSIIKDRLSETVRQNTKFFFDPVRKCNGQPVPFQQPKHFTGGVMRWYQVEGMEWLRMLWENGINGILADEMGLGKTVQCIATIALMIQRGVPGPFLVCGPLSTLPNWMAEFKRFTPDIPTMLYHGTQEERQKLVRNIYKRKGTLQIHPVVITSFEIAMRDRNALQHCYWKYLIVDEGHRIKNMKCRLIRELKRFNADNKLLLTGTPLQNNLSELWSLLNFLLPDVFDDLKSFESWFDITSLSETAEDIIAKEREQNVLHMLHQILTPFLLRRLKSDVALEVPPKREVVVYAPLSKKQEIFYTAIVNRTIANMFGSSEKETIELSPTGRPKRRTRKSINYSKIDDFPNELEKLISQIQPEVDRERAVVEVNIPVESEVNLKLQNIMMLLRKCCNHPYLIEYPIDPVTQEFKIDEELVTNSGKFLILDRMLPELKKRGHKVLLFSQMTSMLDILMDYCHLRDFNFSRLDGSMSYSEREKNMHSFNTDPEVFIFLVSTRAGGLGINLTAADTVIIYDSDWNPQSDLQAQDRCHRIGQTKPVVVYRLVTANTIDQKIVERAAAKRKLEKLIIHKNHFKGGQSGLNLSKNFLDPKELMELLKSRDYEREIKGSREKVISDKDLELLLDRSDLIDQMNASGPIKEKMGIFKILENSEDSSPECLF
UniProt Q6AI08: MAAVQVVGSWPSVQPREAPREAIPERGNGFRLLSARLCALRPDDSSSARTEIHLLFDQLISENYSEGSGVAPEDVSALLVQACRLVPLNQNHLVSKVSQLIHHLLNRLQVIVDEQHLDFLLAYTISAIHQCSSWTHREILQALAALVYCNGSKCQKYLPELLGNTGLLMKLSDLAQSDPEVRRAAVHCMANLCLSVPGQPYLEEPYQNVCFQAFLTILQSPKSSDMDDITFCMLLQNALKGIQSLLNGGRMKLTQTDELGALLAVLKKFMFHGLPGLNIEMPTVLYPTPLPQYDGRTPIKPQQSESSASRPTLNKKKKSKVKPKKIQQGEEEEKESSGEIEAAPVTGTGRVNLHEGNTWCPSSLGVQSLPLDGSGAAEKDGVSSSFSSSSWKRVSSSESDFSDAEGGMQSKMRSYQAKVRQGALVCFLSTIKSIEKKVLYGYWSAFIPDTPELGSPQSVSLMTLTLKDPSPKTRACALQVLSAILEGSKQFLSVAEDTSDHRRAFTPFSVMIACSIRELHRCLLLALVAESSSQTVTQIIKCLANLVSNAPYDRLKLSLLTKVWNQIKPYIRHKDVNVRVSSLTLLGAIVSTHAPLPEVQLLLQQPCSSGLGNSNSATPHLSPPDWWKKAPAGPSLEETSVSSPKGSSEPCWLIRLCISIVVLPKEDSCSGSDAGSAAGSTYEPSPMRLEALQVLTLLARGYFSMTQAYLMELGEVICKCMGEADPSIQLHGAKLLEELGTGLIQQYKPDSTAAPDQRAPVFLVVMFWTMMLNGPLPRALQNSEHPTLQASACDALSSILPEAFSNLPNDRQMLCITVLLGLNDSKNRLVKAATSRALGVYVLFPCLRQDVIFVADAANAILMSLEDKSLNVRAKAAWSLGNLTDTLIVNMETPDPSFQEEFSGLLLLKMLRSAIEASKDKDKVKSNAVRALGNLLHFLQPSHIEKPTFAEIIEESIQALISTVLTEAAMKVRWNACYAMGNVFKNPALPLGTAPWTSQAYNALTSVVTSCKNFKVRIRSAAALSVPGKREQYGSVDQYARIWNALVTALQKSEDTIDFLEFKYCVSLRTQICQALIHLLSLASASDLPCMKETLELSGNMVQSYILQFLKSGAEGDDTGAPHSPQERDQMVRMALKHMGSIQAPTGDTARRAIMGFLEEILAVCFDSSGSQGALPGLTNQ
UniProt Q9ULT8: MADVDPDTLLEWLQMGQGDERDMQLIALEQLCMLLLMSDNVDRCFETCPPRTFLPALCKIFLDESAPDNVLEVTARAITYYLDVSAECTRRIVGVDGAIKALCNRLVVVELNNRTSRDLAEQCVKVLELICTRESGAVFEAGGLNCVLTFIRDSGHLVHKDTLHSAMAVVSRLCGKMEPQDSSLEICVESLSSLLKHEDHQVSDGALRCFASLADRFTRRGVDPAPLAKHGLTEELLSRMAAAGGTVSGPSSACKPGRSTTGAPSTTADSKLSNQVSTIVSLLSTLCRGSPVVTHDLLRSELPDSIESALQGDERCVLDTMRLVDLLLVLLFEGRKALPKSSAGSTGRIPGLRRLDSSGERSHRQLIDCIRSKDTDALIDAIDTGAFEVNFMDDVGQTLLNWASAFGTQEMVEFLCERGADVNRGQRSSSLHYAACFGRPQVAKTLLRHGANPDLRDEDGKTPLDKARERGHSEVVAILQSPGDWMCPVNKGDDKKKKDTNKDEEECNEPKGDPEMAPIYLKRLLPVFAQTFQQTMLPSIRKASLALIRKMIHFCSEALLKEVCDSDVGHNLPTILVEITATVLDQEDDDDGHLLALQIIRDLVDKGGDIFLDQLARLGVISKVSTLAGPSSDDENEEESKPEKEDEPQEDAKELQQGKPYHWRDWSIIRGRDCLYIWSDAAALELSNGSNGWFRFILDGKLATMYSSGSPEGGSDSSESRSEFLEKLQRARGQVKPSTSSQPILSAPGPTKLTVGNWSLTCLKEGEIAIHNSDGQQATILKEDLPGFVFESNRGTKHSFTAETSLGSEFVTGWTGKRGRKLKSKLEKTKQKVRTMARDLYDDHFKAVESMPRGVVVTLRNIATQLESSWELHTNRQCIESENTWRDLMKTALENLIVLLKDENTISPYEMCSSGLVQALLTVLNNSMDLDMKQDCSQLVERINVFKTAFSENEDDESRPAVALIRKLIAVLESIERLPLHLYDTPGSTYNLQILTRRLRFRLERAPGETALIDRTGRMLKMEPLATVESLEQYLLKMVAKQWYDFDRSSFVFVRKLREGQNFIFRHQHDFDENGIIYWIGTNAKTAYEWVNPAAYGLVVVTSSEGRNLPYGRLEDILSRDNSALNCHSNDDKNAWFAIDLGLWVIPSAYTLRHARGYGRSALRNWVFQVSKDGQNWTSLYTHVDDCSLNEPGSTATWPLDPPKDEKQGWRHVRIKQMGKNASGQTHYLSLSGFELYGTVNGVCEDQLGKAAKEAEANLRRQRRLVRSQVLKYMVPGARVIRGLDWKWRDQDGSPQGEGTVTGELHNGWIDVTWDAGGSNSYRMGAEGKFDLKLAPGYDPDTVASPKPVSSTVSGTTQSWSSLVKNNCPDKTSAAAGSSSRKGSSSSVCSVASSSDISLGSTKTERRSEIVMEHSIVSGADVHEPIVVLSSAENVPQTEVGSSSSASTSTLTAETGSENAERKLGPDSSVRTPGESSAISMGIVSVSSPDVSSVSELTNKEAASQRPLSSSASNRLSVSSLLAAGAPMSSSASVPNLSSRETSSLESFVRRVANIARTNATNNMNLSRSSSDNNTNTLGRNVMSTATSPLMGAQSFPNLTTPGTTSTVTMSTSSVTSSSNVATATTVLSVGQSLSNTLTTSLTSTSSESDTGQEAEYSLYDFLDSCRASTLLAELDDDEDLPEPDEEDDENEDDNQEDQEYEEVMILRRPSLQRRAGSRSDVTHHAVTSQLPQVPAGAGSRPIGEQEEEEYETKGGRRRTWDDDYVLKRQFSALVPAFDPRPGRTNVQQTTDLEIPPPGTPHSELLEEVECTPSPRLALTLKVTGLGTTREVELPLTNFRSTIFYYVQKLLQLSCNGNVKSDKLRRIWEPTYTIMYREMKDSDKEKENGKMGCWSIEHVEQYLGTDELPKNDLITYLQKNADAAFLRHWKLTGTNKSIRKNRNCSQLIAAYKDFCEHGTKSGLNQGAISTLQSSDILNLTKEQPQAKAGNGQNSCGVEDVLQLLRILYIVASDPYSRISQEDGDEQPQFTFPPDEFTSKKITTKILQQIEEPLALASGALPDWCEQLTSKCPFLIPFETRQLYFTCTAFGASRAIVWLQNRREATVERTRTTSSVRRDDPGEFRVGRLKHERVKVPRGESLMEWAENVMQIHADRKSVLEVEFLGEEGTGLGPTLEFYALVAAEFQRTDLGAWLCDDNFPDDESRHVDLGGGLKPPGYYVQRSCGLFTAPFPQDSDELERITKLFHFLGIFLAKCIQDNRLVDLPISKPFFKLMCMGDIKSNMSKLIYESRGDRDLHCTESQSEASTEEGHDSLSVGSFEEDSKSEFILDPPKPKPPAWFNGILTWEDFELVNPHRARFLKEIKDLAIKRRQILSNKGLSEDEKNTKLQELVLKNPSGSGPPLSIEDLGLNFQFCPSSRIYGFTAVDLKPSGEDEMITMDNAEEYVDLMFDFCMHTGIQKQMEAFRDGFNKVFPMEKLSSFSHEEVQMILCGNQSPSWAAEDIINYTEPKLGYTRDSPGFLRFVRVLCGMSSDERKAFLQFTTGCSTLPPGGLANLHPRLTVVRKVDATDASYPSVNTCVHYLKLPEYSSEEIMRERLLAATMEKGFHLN
UniProt Q96MH2: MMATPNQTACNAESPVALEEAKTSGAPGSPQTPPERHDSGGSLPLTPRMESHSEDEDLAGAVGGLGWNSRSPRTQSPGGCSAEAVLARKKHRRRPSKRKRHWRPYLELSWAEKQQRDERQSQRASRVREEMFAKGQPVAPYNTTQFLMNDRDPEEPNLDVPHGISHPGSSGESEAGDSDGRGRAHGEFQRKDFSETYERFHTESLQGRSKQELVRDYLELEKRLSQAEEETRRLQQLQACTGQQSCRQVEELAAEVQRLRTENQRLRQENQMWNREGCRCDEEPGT
UniProt P08631: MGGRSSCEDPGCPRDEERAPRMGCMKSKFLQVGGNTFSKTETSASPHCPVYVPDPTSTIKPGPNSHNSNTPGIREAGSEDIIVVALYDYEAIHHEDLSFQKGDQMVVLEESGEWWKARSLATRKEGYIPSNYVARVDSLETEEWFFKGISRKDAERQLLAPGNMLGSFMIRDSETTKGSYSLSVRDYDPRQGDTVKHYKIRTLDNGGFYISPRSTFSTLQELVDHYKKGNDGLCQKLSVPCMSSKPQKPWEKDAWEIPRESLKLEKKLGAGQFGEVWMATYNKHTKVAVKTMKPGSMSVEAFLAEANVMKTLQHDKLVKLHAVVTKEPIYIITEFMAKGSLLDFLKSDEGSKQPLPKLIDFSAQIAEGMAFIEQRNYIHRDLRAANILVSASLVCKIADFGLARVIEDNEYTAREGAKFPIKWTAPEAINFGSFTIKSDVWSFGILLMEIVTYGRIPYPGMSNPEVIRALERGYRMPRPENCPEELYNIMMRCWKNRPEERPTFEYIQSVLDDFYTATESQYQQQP

Compound: Cc1cc(ccc1-c1ccccc1)C(=O)N1CCCN(CC1)C(=O)CCl [compound 10]
Assay: probe-labelled cysteine peptide fold change vs DMSO (competition) (log2 fold change); higher = less target engagement (more negative = stronger competition)
Settings: THP-1, incubation time: 4 h
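Also: competitive profiling in live THP-1 cells: cysteine peptides tagged with an iodoacetamide desthiobiotin (IA-DTB) probe, intensity after compound treatment relative to DMSO-treated cells.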

Target | probe-labelled cysteine peptide fold change (10 µM) | probe-labelled cysteine peptide fold change (50 µM)
HELB_Q8NG08_368_AIAFSICDLMK (UniProt Q8NG08) | 0.301 | -0.0621
HELLS_Q9NRZ9_169_ENEDENSSSTNLCVEDLQK (UniProt Q9NRZ9) | -0.162 | 0.0229
HDGF_P51858_108_SCVEEPEPEPEAAEGDGDK (UniProt P51858) | -0.176 | -0.206
HCLS1_P14317_470_CHGHFGLFPANYVK (UniProt P14317) | 0.0138 | -0.0493
HEATR5B_Q9P2D3_1166_KLCSDIHDTLGHMLSSLAVEK (UniProt Q9P2D3) | 0.0501 | -0.37
HLA-C_P04222_345+364_GGSCSQAASSNSAQGSDESLIACKA (UniProt P04222) | -0.638 | -1.66
HEATR6_Q6AI08_232_SSDMDDITFCMLLQNALK (UniProt Q6AI08) | 0.0594 | -0.235
HIP1_O00291_906_GKFEELMVCSHEIAASTAQLVAASK (UniProt O00291) | 0.0805 | 0.788
HLA-A_P01892_125_MYGCDVGSDWR (UniProt P01892) | -0.124 | -0.0856
HEATR3_Q7Z4Q2_171+173_NSIENIANETVNVLWNICECSSR (UniProt Q7Z4Q2) | 0.521 | -0.204
HDAC6_Q9UBN7_407_ALAEGVSASLHTLLGDPCPMLESPGAPCR (UniProt Q9UBN7) | 0.0324 | -0.19
HLTF_Q14527_780_LILSSGSDEECAICLDSLTVPVITHCAHVFCK (UniProt Q14527) | 0.357 | 0.633
HEATR5B_Q9P2D3_1166_LCSDIHDTLGHMLSSLAVEK (UniProt Q9P2D3) | -0.0206 | -0.0886
HK2_P52789_438_LVPGCDVR (UniProt P52789) | -0.0685 | 0.204
HECTD1_Q9ULT8_1389_KGSSSSVCSVASSSDISLGSTK (UniProt Q9ULT8) | -0.299 | 0.00682
HEATR5B_Q9P2D3_518_TSPEAVSGYSFAMAALLGGVHQCPLGIPHAK (UniProt Q9P2D3) | 0.106 | -0.115
HECTD1_Q9ULT8_316_CVLDTMR (UniProt Q9ULT8) | -0.264 | 0.0341
HCFC2_Q9Y5Z7_659_VAAINGCGIGPFSK (UniProt Q9Y5Z7) | -0.1 | -0.0904
HGH1_Q9BTY7_227_NCCFEHR (UniProt Q9BTY7) | -0.081 | -0.695

Target | probe-labelled cysteine peptide fold change (10 µM) | probe-labelled cysteine peptide fold change (50 µM)
HMG20B_Q9P0W2_177_GGDCDGFSTFDVPIFTEEFLDQNK (UniProt Q9P0W2) | -0.236 | -0.399
HDHD3_Q9BSH5_243_EHILPSLAHLLPALDCLEGSTPGL (UniProt Q9BSH5) | -0.209 | 0.176
HECTD3_Q5T447_744_VCGDPEVTVDALR (UniProt Q5T447) | -0.0665 | 0.255
HECTD1_Q9ULT8_1855_LLQLSCNGNVK (UniProt Q9ULT8) | -0.402 | -0.535
HERC2_O95714_2881_TININPSDTTVPLLNDCTEYHR (UniProt O95714) | -0.124 | 0.418
HK1_P19367_813_AILQQLGLNSTCDDSILVK (UniProt P19367) | 0.0936 | 0.00861
HIF1AN_Q9NWT6_236_CILFPPDQFECLYPYPVHHPCDR (UniProt Q9NWT6) | 0.0984 | -0.0127
HK3_P52790_840_AAQLCGAGVAAVVEK (UniProt P52790) | 0.169 | -0.0558
HGS_O14964_185+190_ACGQIFCGK (UniProt O14964) | -0.267 | -0.635
HEATR1_Q9H583_1899_AQHSENDLEEVGKTENCIIDCLVAMVVK (UniProt Q9H583) | 0.0405 | 0.317
HIRIP3_Q9BW71_86_RPPTPCSDPER (UniProt Q9BW71) | -0.266 | -0.993
HEXIM2_Q96MH2_80_TQSPGGCSAEAVLAR (UniProt Q96MH2) | -0.0675 | -0.314
HEATR6_Q6AI08_426_QGALVCFLSTIK (UniProt Q6AI08) | 0.00641 | 0.0825
HDAC1_Q13547_12_KVCYYYDGDVGNYYYGQGHPMK (UniProt Q13547) | 0.0487 | -0.337
HDLBP_Q00341_104_ICLEIMQR (UniProt Q00341) | 0.172 | 0.0311
HERPUD1_Q15011_68_LLLDHQCLR (UniProt Q15011) | 0.794 | 0.718
HCK_P08631_48_TETSASPHCPVYVPDPTSTIK (UniProt P08631) | -0.245 | -0.196
HERC2_O95714_4517_DESGANRDCYLLSPAAR (UniProt O95714) | 0.221 | 0.126
